Measurements published in paper PMC12342889.

Amino acid sequences for entries named in this document (tags omitted). Residues count along the entry.
UniProt O43347, 1-200 E180N/K182M: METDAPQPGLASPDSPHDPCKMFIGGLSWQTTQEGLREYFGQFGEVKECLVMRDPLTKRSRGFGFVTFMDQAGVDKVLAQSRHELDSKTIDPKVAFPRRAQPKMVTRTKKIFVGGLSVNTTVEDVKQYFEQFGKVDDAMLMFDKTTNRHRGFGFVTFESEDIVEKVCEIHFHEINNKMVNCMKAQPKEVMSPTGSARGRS
UniProt O43347, 1-200: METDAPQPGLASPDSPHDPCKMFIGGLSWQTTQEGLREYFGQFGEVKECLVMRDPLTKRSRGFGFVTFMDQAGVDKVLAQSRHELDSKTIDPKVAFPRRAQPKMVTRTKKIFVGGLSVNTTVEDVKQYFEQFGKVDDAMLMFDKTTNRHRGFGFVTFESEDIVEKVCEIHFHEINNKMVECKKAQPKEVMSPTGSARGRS
UniProt O43347, 1-200 F96P/R98P/E180N/K182M: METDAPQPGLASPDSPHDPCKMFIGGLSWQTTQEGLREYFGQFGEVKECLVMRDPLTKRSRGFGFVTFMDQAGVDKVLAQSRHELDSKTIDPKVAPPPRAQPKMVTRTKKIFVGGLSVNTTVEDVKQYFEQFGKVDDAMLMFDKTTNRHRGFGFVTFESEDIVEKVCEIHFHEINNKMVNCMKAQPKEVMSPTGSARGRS

Legend:
[1] = target: MSI-1 RRM1-2 DM E180N,K182M (Homo sapiens) (UniProt O43347); assay: NMR; settings: second site weakened, heterogeneous; NMR: 50 mM Tris-HCl, 140 mM NaCl, 1 mM EDTA, 1 mM protease inhibitors, pH 7.2 (RRM1: pH 7.5), 298 K; recombinant protein; residues 1-200
[2] = target: MSI-1 RRM1-2 (Homo sapiens) (UniProt O43347); assay: NMR; settings: NMR: 50 mM Tris-HCl, 140 mM NaCl, 1 mM EDTA, 1 mM protease inhibitors, pH 7.2 (RRM1: pH 7.5), 298 K, recombinant protein, residues 1-200
[3] = target: MSI-1 RRM1-2 DM E180N,K182M (Homo sapiens) (UniProt O43347); assay: SPR; settings: KD2 bivalent, 1:2 model; SPR: biotinylated RNA immobilised; recombinant protein; residues 1-200; label: biotin for SPR, unlabelled for NMR
[4] = target: MSI-1 RRM1-2 TM F96P,R98P,E180N,K182M (Homo sapiens) (UniProt O43347); assay: NMR; settings: fast exchange, only RRM2 involved; NMR: 50 mM Tris-HCl, 140 mM NaCl, 1 mM EDTA, 1 mM protease inhibitors, pH 7.2 (RRM1: pH 7.5), 298 K; recombinant protein; residues 1-200; label: biotin for SPR, unlabelled for NMR

Sequence: AAGCGAUAGUUAUGCAGGCGCUU [oligo-HP4.2]
- binding result [1]: binds more weakly
- binding result ([2]; second site weakened, heterogeneous): binds more weakly

Sequence: UUGAUAGUUAGCAGGU [oligo-L3.2]
- binding result ([2]; slow exchange, split signals, text says weaker than L3, label: biotin for SPR, unlabelled for NMR): binds more weakly

Sequence: UUGUUAGUUACCCCUU [oligo-L2]
- Kd [3]: 10.6 µM

Sequence: UUGUUAGUUAUUAGUU [oligo-L3]
- binding result [4]: binds more weakly

For some assays here: Weaker means in comparison with the reference protein, sequence or condition of that experiment. For some assays here: For at least one entry, the source does not settle the construct or the ends of the probe.
